# Data from the supplement of paper PMC8728848.
# The list shows a part of the results.
# How the values were obtained:
# Experiment in all cases: glycan array binding signal (z-score within array); higher = stronger binding
# Details in all cases: glycan notation: IUPAC condensed, linker removed
# [1] = molecular target: GlcNAc(b1-3)Man
# How it was run: (§1)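 Columns mapping to the same glycan were averaged after glycan names were converted to IUPAC-condensed notation. The data come from 3228 arrays in the Consortium for Functional Glycomics database, limited to those with an available protein sequence. Binding is reported as a within-array Z-score averaged across arrays of one protein sequence and across linkers.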
# [2] = molecular target: GlcNAc(b1-3)[GlcNAc(b1-4)][GlcNAc(b1-6)]GlcNAc
# How it was run: as §1
# [3] = molecular target: GlcNAc(b1-3)[GlcNAc(b1-6)]Gal(b1-4)GlcNAc
# How it was run: as §1
# [4] = molecular target: GlcNAc(b1-3)[GlcNAc(b1-6)]GalNAc
# How it was run: as §1
# [5] = molecular target: GlcNAc(b1-4)Gal(b1-4)GlcNAc
# How it was run: as §1
# [6] = molecular target: GlcNAc(b1-4)GlcNAc
# How it was run: as §1
# [7] = molecular target: GlcNAc(b1-4)GlcNAc(b1-4)GlcNAc
# How it was run: as §1
# [8] = molecular target: GlcNAc(b1-4)GlcNAc(b1-4)GlcNAc(b1-4)GlcNAc(b1-4)GlcNAc
# How it was run: as §1
# [9] = molecular target: GlcNAc(b1-4)GlcNAc(b1-4)GlcNAc(b1-4)GlcNAc(b1-4)GlcNAc(b1-4)GlcNAc
# How it was run: as §1
# [10] = molecular target: GlcNAc(b1-4)[GlcNAc(b1-6)]GalNAc
# How it was run: as §1
# [11] = molecular target: GlcNAc(b1-6)Gal(b1-4)GlcNAc
# How it was run: as §1
# [12] = molecular target: GlcNAc(b1-6)GalNAc
# How it was run: as §1
# [13] = molecular target: GlcNAc6S(b1-3)Gal(b1-4)GlcNAc
# How it was run: as §1
# [14] = molecular target: Kdn(a2-3)Gal(b1-3)GalNAc
# How it was run: as §1
# [15] = molecular target: Kdn(a2-3)Gal(b1-3)GlcNAc
# How it was run: as §1
# [16] = molecular target: Kdn(a2-3)Gal(b1-4)Glc
# How it was run: as §1
# [17] = molecular target: Kdn(a2-3)Gal(b1-4)GlcNAc
# How it was run: as §1
# [18] = molecular target: Kdn(a2-3)Gal(b1-4)[Fuc(a1-3)]GlcNAc
# How it was run: as §1
# [19] = molecular target: Kdn(a2-6)Gal(b1-4)GlcNAc
# How it was run: as §1
# [20] = molecular target: Man(a1-2)Man(a1-2)Man(a1-3)Man
# How it was run: as §1
# [21] = molecular target: Man(a1-2)Man(a1-2)Man(a1-6)[Man(a1-3)]Man
# How it was run: as §1
# [22] = molecular target: Man(a1-2)Man(a1-3)Man
# How it was run: as §1
# [23] = molecular target: Man(a1-2)Man(a1-3)[Man(a1-2)Man(a1-6)]Man
# How it was run: as §1
# [24] = molecular target: Man(a1-2)Man(a1-3)[Man(a1-2)Man(a1-6)]Man(a1-6)[Man(a1-2)Man(a1-2)Man(a1-3)]Man
# How it was run: as §1
# [25] = molecular target: Man(a1-2)Man(a1-3)[Man(a1-2)Man(a1-6)]Man(a1-6)[Man(a1-2)Man(a1-2)Man(a1-3)]Man(b1-4)GlcNAc(b1-4)GlcNAc
# How it was run: as §1
# [26] = molecular target: Man(a1-2)Man(a1-3)[Man(a1-6)]Man(a1-6)[Man(a1-2)Man(a1-3)]Man(b1-4)GlcNAc(b1-4)GlcNAc
# How it was run: as §1
# [27] = molecular target: Man(a1-2)Man(a1-6)[Man(a1-3)]Man(a1-6)[Man(a1-2)Man(a1-2)Man(a1-3)]Man
# How it was run: as §1
# [28] = molecular target: Man(a1-2)Man(a1-6)[Man(a1-3)]Man(a1-6)[Man(a1-2)Man(a1-2)Man(a1-3)]Man(b1-4)GlcNAc(b1-4)GlcNAc
# How it was run: as §1
# [29] = molecular target: Man(a1-3)[Man(a1-6)]Man
# How it was run: as §1
# [30] = molecular target: Man(a1-3)[Man(a1-6)]Man(a1-6)[Man(a1-2)Man(a1-3)]Man(b1-4)GlcNAc(b1-4)GlcNAc
# How it was run: as §1
# [31] = molecular target: Man(a1-3)[Man(a1-6)]Man(a1-6)[Man(a1-3)]Man
# How it was run: as §1
# [32] = molecular target: Man(a1-3)[Man(a1-6)]Man(a1-6)[Man(a1-3)]Man(b1-4)GlcNAc(b1-4)GlcNAc
# How it was run: as §1
# [33] = molecular target: Man(a1-3)[Man(a1-6)]Man(b1-4)GlcNAc(b1-4)GlcNAc
# How it was run: as §1
# [34] = molecular target: Man(a1-3)[Man(a1-6)]Man(b1-4)GlcNAc(b1-4)[Fuc(a1-6)]GlcNAc
# How it was run: as §1
# [35] = molecular target: Man(a1-6)Man
# How it was run: as §1
# [36] = molecular target: Man(b1-4)GlcNAc
# How it was run: as §1
# [37] = molecular target: MurNAc(b1-4)GlcNAc
# How it was run: as §1
# [38] = molecular target: Neu5Ac(a2-3)Gal
# How it was run: as §1
binder,measurement,setting,value
PX14379D-pdi-530-26-530 (Parabacteroides distasonis) (protein) DETVYDKLPADDFGQSTAELNALIGNSHNTMKKFWTEYMHLSECSGSMAVTPTRRGGDWYDGGQYREIYMHTWTSQTSRVKSAWKAATEAIGTCNEAIRKLQNSEILTEEEKAQDVADLRGVRAFWIYVMMDYWGNIPLLTEFHPTDKVFPGNSSRQEVFDWLIQEVEEIKDICPPATTENYGSFTQGAAYSLLAKLYLNAEAWGVTFSGNAYQKVIDNCDKVMAMGYILEPNWKDNFSVTNENSKEAILAATFSSSDTGNDGNVKNELHNNTLHYKDYLSLGITASGTWNGICAQPEYVRLFDEEDARLDGTFLTGLMIDKSTGKPIMTDHNNELNHTIDVNMIPGMEYDGTNWSAVEQHDGARCFKWEFASDLTSSMGNDFHIFRLADIYLMKAEALLRGGGSVSEATALVNTIRERGYGNSDHNYATVTLKEVQLERRLELAWEVYSRQDDIRFGCFTTGMWPQSNCERKADDYLKLLPVSQDAWQVNPNLKQNPGYAAFSK,glycan array binding signal (z-score),[1],0.193
same,glycan array binding signal (z-score),[2],1.15
same,glycan array binding signal (z-score),[3],0.025
same,glycan array binding signal (z-score),[4],-0.295
same,glycan array binding signal (z-score),[5],-0.445
same,glycan array binding signal (z-score),[6],0.044
same,glycan array binding signal (z-score),[7],-0.355
same,glycan array binding signal (z-score),[8],-1.09
same,glycan array binding signal (z-score),[9],-0.189
same,glycan array binding signal (z-score),[10],-0.589
same,glycan array binding signal (z-score),[11],0.646
same,glycan array binding signal (z-score),[12],0.12
same,glycan array binding signal (z-score),[13],0.56
same,glycan array binding signal (z-score),[14],-0.548
same,glycan array binding signal (z-score),[15],-0.752
same,glycan array binding signal (z-score),[16],1.04
same,glycan array binding signal (z-score),[17],0.132
same,glycan array binding signal (z-score),[18],0.342
same,glycan array binding signal (z-score),[19],-0.328
same,glycan array binding signal (z-score),[20],-0.399
same,glycan array binding signal (z-score),[21],0.299
same,glycan array binding signal (z-score),[22],1.14
same,glycan array binding signal (z-score),[23],0.011
same,glycan array binding signal (z-score),[24],-0.971
same,glycan array binding signal (z-score),[25],-0.057
same,glycan array binding signal (z-score),[26],-1.26
same,glycan array binding signal (z-score),[27],-0.013
same,glycan array binding signal (z-score),[28],-0.518
same,glycan array binding signal (z-score),[29],-0.539
same,glycan array binding signal (z-score),[30],-0.447
same,glycan array binding signal (z-score),[31],0.476
same,glycan array binding signal (z-score),[32],-0.474
same,glycan array binding signal (z-score),[33],-0.339
same,glycan array binding signal (z-score),[34],-0.773
same,glycan array binding signal (z-score),[35],1.65
same,glycan array binding signal (z-score),[36],-1.02
same,glycan array binding signal (z-score),[37],-1.1
same,glycan array binding signal (z-score),[38],-0.656

# Three entries from above, with bars between the fields.
binder | measurement | setting | value
PX14379D-pdi-530-26-530 (Parabacteroides distasonis) (protein) DETVYDKLPADDFGQSTAELNALIGNSHNTMKKFWTEYMHLSECSGSMAVTPTRRGGDWYDGGQYREIYMHTWTSQTSRVKSAWKAATEAIGTCNEAIRKLQNSEILTEEEKAQDVADLRGVRAFWIYVMMDYWGNIPLLTEFHPTDKVFPGNSSRQEVFDWLIQEVEEIKDICPPATTENYGSFTQGAAYSLLAKLYLNAEAWGVTFSGNAYQKVIDNCDKVMAMGYILEPNWKDNFSVTNENSKEAILAATFSSSDTGNDGNVKNELHNNTLHYKDYLSLGITASGTWNGICAQPEYVRLFDEEDARLDGTFLTGLMIDKSTGKPIMTDHNNELNHTIDVNMIPGMEYDGTNWSAVEQHDGARCFKWEFASDLTSSMGNDFHIFRLADIYLMKAEALLRGGGSVSEATALVNTIRERGYGNSDHNYATVTLKEVQLERRLELAWEVYSRQDDIRFGCFTTGMWPQSNCERKADDYLKLLPVSQDAWQVNPNLKQNPGYAAFSK | glycan array binding signal (z-score) | [17] | 0.132
same | glycan array binding signal (z-score) | [18] | 0.342
same | glycan array binding signal (z-score) | [19] | -0.328
